These are yes or no findings as the source states them, for the method shown. Binding seen in cells or lysates may run through a third protein. Some entries that bind do so weakly or less than the wild type. Each block holds one binder with its values, some of them ahead of it.
Assays:
[1] = target: recombinant maltose-binding protein-SOC1 (MBP-SOC1) fusion (Arabidopsis thaliana) (UniProt O64645); assay: in vitro pull-down: MBP-SOC1 on amylose resin, 35S-labeled in vitro translated polypeptide, autoradiography
[2] = target: recombinant MBP-BdSOC1 protein (Brachypodium distachyon); assay: in vitro pull-down: MBP-BdSOC1 on amylose resin, 35S-labeled in vitro translated polypeptide, autoradiography

- binding [1]: binds
B1: S-K truncated SOC1 form (peptide)
chain: VSEENMQHLKYEAANMMKKIEQLEASKRKLLGEGIGTCSIEELQQIEQQLEKSVKCIRARKTQVFKEQIEQLKQKEKALAAENEKLSEK
modifications: 35S-Met label in the pull-down assay (in vitro translated)

- binding [2]: binds
B2: BdS-IK truncated BdSOC1 form (peptide)
chain: KAHELSVLCDVEVALIVFSPSGRLYEFASASMQKTLERYKASTKDKTSSPTAQQDIEKIKADAEGLSQKLEALEAYRRKFLGEKLEDDCSFEELNSLEVKMEKSLRSIRRMKTQVFEDQLAKLRQKEMTLRKENEDLRGK
modifications: 35S-Met label in the pull-down assay (in vitro translated)

- binding [2]: binds
B3: BdS-K truncated BdSOC1 form (peptide)
chain: TAQQDIEKIKADAEGLSQKLEALEAYRRKFLGEKLEDDCSFEELNSLEVKMEKSLRSIRRMKTQVFEDQLAKLRQKEMTLRKENEDLRGK
modifications: 35S-Met label in the pull-down assay (in vitro translated)
